Our source for the binding signal values is PMC7819943, “Rice protein-binding microarrays: a tool to detect cis-acting elements near promoter regions in rice”.

By UniProt entry, the sequences of proteins in these tests, tags left out.
UniProt Q0JBA9, entry or part of it: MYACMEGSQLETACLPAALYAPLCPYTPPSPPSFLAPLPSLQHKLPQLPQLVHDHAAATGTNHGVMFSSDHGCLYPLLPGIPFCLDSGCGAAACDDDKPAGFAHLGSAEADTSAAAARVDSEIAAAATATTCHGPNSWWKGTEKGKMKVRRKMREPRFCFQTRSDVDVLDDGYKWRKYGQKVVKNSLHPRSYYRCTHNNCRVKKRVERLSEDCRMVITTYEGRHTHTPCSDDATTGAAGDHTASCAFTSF

The list shows a part of the results.

This assay deals with OsWRKY34 (Oryza sativa, UniProt Q0JBA9 1-250). In words: protein-binding microarray (RPBM); PBS, 2% BSA, 51.3 ng/ul salmon testes DNA, 50 uM zinc acetate, 200 nM TF, 25 C, 1 h; high values mean tight binding. To be noted: protein: recombinant; tags: N-terminal polyhistidine and DsRed monomer fusion (pET32a); label: CyDye5-dUTP incorporated in the synthesized complementary strand; 3' TTTTT single-stranded linker to array surface; dsDNA, one strand shown. In a few lines: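 Ni–NTA purification followed expression in E. coli BL21-CodonPlus of transcription factors fused N-terminally to a polyhistidine tag and DsRed. At 200 nM in PBS with 2% BSA, salmon testes DNA and 50 µM zinc acetate, the protein was incubated for 1 h at 25 °C with a custom Agilent array that had been primer-extended with Cy5-dUTP and blocked with 2% BSA. After washing, the array was read on an Axon 4000B scanner. The binding signal is per-feature fluorescence intensity in arbitrary units.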
For “CCGATGGTTTTCTTTTGACCCTTTTTGTCTTCATTAACACCGGAGTCACCTAGTGCAG”, the binding signal was 11000 fluorescence intensity (a.u.).

Regarding “TCTCAAACAATTGCCTCTTCCTACGACGACTGGTGTGTTTCGGAGTCACCTAGTGCAG”, the binding signal was 9170 fluorescence intensity (a.u.).

Regarding “GGCGGCCCAGGTACCGCGCGACTCGTTTTTTTTTTCCCCTCGGAGTCACCTAGTGCAG”, the binding signal was 9900 fluorescence intensity (a.u.).

For “ATCCCTTTGCCTAGTCAGGCTTCAACTCGATAGTCTTCTCCGGAGTCACCTAGTGCAG”, the binding signal was 8300 fluorescence intensity (a.u.).

Turning to “TCCATAAACGTTTTATCACATGTGCATCTATTTTGCCATGCGGAGTCACCTAGTGCAG”, the binding signal was 8760 fluorescence intensity (a.u.).

For the sequence “CCCACGATAAAATTTTCATGATACAGTTATCCTGTCACGACGGAGTCACCTAGTGCAG”, the binding signal is 9220 fluorescence intensity (a.u.).

For “CTGCCTGCGCCGTCGGCCGACTCCTCGCTACTTCGCCCGCCGGAGTCACCTAGTGCAG”, the binding signal was 9300 fluorescence intensity (a.u.).

In the case of “TCTTTTAGGGTTTGGTTTCCTTGCCCTCTCCCGCCCTGGGCGGAGTCACCTAGTGCAG”, the binding signal was 8310 fluorescence intensity (a.u.).

Turning to “AATTGTATACCGGCATGGACACTAGTCTCTTTTTCAATATCGGAGTCACCTAGTGCAG”, the binding signal was 11300 fluorescence intensity (a.u.).

With “CACTCTAGACTCTACCCATTCCCATTACCCACGCCGCTTTCGGAGTCACCTAGTGCAG”, the binding signal is 9400 fluorescence intensity (a.u.).

Turning to “GTTTCTTCACCTACTTCTACTTTTCAGCCAATTATGTTTTCGGAGTCACCTAGTGCAG”, the binding signal was 8940 fluorescence intensity (a.u.).

As to “GCTAAGGGTATGGATTATAGTGAGGTGTGGATATTTTGACCGGAGTCACCTAGTGCAG”, the binding signal was 9790 fluorescence intensity (a.u.).

As for “AAAGTGTGACTTGTCTATCCATGTTTTGCTGGCACCATTTCGGAGTCACCTAGTGCAG”, the binding signal is 10200 fluorescence intensity (a.u.).

“CCATGGATGCCATCCAGTCGCGCCCGCTGCTGTCGCTCGCCGGAGTCACCTAGTGCAG”: the binding signal is 9320 fluorescence intensity (a.u.).

For “ATTCACCGAAGCGACGCTCTCCGTACCTCCACTGACATGCCGGAGTCACCTAGTGCAG”, the binding signal is 8460 fluorescence intensity (a.u.).

For “TCCTGCTCTTCATCGTGTTTTATGTGAACTTGTCGTATGCCGGAGTCACCTAGTGCAG”, the binding signal is 8570 fluorescence intensity (a.u.).

“GGTTTCTGTATACTCCCTCTGTTTCAGGTTATAAGATATTCGGAGTCACCTAGTGCAG”: the binding signal is 8040 fluorescence intensity (a.u.).

For the sequence “GAGGTGGGGTGGCTTAGTGACCTCGTGTCGTAGATTGGATCGGAGTCACCTAGTGCAG”, the binding signal is 10500 fluorescence intensity (a.u.).

As for “ACCATTATCCCCACCTTGTCCACAAGTCCAAACACATATCCGGAGTCACCTAGTGCAG”, the binding signal is 8510 fluorescence intensity (a.u.).

As to “CTACCTCCATATTTTAATGTATGACGCCGTTGACTTTTTGCGGAGTCACCTAGTGCAG”, the binding signal is 37500 fluorescence intensity (a.u.).

With “GCGGACCGCGCCATCCCACTTCCGCCTCGCGCCTCACTCGCGGAGTCACCTAGTGCAG”, the binding signal was 8580 fluorescence intensity (a.u.).

With “CTGGTGTTATTCGTTTCTCTGTTGCAAAACGGGTTGTTTTCGGAGTCACCTAGTGCAG”, the binding signal is 9980 fluorescence intensity (a.u.).

In the case of “ATTCTCTGCTTGTTTGGCCCATCCGCCCCTACAGCATGGGCGGAGTCACCTAGTGCAG”, the binding signal was 10300 fluorescence intensity (a.u.).

With “ACTCCCTCCATTTTTTTAATTGACGACGCCATTGACTTTTCGGAGTCACCTAGTGCAG”, the binding signal is 9350 fluorescence intensity (a.u.).

For the sequence “CCTACAGTCAAGCCCATTCTGTTTTACCGATTGCAATGCTCGGAGTCACCTAGTGCAG”, the binding signal is 9000 fluorescence intensity (a.u.).

As to “CTCCTTCGCCGCCACTCCACCGGTCTCACGGTCGCTGCCACGGAGTCACCTAGTGCAG”, the binding signal was 9800 fluorescence intensity (a.u.).

As to “CAAGTCGTTCGTTGTACTCTCGCTCGCCGCCGTGCTGCTCCGGAGTCACCTAGTGCAG”, the binding signal was 8550 fluorescence intensity (a.u.).

Consider “CAACCCTCTTATGTTGACCCGTAAACCCTGTTATGCATTACGGAGTCACCTAGTGCAG”, for which the binding signal is 8340 fluorescence intensity (a.u.).

On to “GGATCGGCAATGTCAGCAGCTGCTCACTTGCTCGCATGCCCGGAGTCACCTAGTGCAG”, for which the binding signal was 8330 fluorescence intensity (a.u.).

“GGGGTGCTGTTGCTGCGTGCCTGCGTGTACGTCGTTTGGTCGGAGTCACCTAGTGCAG”: the binding signal is 10300 fluorescence intensity (a.u.).

In the case of “GACTTCTCTCGCTGGTTGGTTGGTTTCTTGATCCGCCATGCGGAGTCACCTAGTGCAG”, the binding signal was 13100 fluorescence intensity (a.u.).

For “AGGCAGGGTGGCGGCGGGCTCTTCTCTTCTCTCTCCCATGCGGAGTCACCTAGTGCAG”, the binding signal was 9950 fluorescence intensity (a.u.).

Regarding “GATTTACCCTACTCGTGATAATACTTGCTAAATATATATTCGGAGTCACCTAGTGCAG”, the binding signal is 9910 fluorescence intensity (a.u.).

Regarding “GCACTTTGAACCGCCCTCACACACCCTGCACCCACTGCTCCGGAGTCACCTAGTGCAG”, the binding signal is 10700 fluorescence intensity (a.u.).

For “GCATTCATATTTCTCTCCACTCGTAATCCCATATAATTCACGGAGTCACCTAGTGCAG”, the binding signal is 8700 fluorescence intensity (a.u.).

Consider “ACATGGATACCCACGGCTATACTTATTTTGGGACCGAGGTCGGAGTCACCTAGTGCAG”, for which the binding signal is 8430 fluorescence intensity (a.u.).

With “TCAAGTTTGAGTCCTTTTGGGCGCGCCTTGACGGTTTTCACGGAGTCACCTAGTGCAG”, the binding signal is 8620 fluorescence intensity (a.u.).

For “TTTCCACCGCATTTCCAAGGCTCCTCGTCCATGTCCTCGTCGGAGTCACCTAGTGCAG”, the binding signal was 8580 fluorescence intensity (a.u.).

As for “CTCACTCGCTTGCGCTTCACCTCGCGGCATCGACTTCCTACGGAGTCACCTAGTGCAG”, the binding signal is 11500 fluorescence intensity (a.u.).

For “AATTTTTCTCCAGCTGTGCAATATACACACACATTTGCGCCGGAGTCACCTAGTGCAG”, the binding signal was 8420 fluorescence intensity (a.u.).

“GTGGCTTTTTGTGGTTTATGCACACCATTGGCAGCTGCTACGGAGTCACCTAGTGCAG”: the binding signal is 8720 fluorescence intensity (a.u.).

Turning to “TTCGATCACGCAATTCACATTTGCTACTTGGAGGCACATCCGGAGTCACCTAGTGCAG”, the binding signal was 8250 fluorescence intensity (a.u.).

Consider “CGAACCCCTCTGCACAGCCATTGGTATGGTATCTTGTTTCCGGAGTCACCTAGTGCAG”, for which the binding signal was 8370 fluorescence intensity (a.u.).

For the sequence “ATTTTTTATTTCTTTTGTTTCAAATTTCAGTTCTTTTTATCGGAGTCACCTAGTGCAG”, the binding signal is 9720 fluorescence intensity (a.u.).

Regarding “ATATGCATAAATCACTGATTTGGTCATCTTTTTTCCTTGTCGGAGTCACCTAGTGCAG”, the binding signal was 8360 fluorescence intensity (a.u.).

On to “TCCACCTGGTTTCCTTTTTTGGCACCGTATTACTTTCCTACGGAGTCACCTAGTGCAG”, for which the binding signal is 9930 fluorescence intensity (a.u.).

As to “CGCCGTCGCCGCCGCCGCCGCCGCCATCTCCACCTCCGCCCGGAGTCACCTAGTGCAG”, the binding signal is 8500 fluorescence intensity (a.u.).

Regarding “ATCCGTTGCTCCGTTTTACATGTGTGAAGGGTTAGTTTCCCGGAGTCACCTAGTGCAG”, the binding signal was 9320 fluorescence intensity (a.u.).

Take “CCTTCCAAGATCCCAACCCCTTTTCTTCTTTTTTTTTGTTCGGAGTCACCTAGTGCAG”: the binding signal is 11400 fluorescence intensity (a.u.).

Turning to “TTCTACTCGCTGACCTTGCTGCTATGCCTCGCGTGCTCGCCGGAGTCACCTAGTGCAG”, the binding signal was 10900 fluorescence intensity (a.u.).

With “GGGCCGATCTGGACGCCGTTGACCCGCCCGATTCGGCTCGCGGAGTCACCTAGTGCAG”, the binding signal is 9200 fluorescence intensity (a.u.).

As to “GGTGCACTGAGGAGAGGAGGGGTGGGTAAGGAGCAGATGACGGAGTCACCTAGTGCAG”, the binding signal was 13100 fluorescence intensity (a.u.).

For the sequence “TACGCTATATCACAATTCTTATTTTGCATGCGGTTCAAGTCGGAGTCACCTAGTGCAG”, the binding signal is 9490 fluorescence intensity (a.u.).

With “AATCAACCTTGTTGTTCTCTGTAGCGCTTTCCTTTGGATTCGGAGTCACCTAGTGCAG”, the binding signal is 9560 fluorescence intensity (a.u.).
